Experimental data: PMC6683473
These are yes or no findings as the source states them, for the method shown. Binding seen in cells or lysates may run through a third protein. Some results given as binding are weak or reduced against the parent protein; the word gives no strength.

T1: Smad4 (human (endogenous in PANC-1)), Q13485
T1 chain: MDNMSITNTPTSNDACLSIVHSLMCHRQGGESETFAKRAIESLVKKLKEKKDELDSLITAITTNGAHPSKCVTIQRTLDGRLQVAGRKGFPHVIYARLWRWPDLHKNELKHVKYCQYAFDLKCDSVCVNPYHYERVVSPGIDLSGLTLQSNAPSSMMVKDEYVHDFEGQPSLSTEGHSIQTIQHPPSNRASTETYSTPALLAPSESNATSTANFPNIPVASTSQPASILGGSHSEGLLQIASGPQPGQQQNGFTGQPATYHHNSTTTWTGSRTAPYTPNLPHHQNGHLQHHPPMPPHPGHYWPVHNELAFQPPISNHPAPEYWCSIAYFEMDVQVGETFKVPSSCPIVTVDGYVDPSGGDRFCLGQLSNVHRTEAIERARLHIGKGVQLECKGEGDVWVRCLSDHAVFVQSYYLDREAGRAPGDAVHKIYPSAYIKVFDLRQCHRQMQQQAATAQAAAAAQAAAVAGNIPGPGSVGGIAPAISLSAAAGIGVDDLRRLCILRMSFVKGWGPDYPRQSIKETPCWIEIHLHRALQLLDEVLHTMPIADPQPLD

B1: Smad2, Q15796 1-467 (protein)
chain: MSSILPFTPPVVKRLLGWKKSAGGSGGAGGGEQNGQEEKWCEKAVKSLVKKLKKTGRLDELEKAITTQNCNTKCVTIPSTCSEIWGLSTPNTIDQWDTTGLYSFSEQTRSLDGRLQVSHRKGLPHVIYCRLWRWPDLHSHHELKAIENCEYAFNLKKDEVCVNPYHYQRVETPVLPPVLVPRHTEILTELPPLDDYTHSIPENTNFPAGIEPQSNYIPETPPPGYISEDGETSDQQLNQSMDTGSPAELSPTTLSPVNHSLDLQPVTYSEPAFWCSIAYYELNQRVGETFHASQPSLTVDGFTDPSNSERFCLGLLSNVNRNATVEMTRRHIGRGVRLYYIGGEVFAECLSDSAIFVQSPNCNQRYGWHPATVCKIPPGCNLKIFNNQEFAALLAQSVNQGFEAVYQLTRMCTIRMSFVKGWGAEYRRQTVTSTPCWIELHLNGPLQWLDKVLTQMGSPSVRCSSMS
B2: Smad3, P84022 1-425 (protein)
chain: MSSILPFTPPIVKRLLGWKKGEQNGQEEKWCEKAVKSLVKKLKKTGQLDELEKAITTQNVNTKCITIPRSLDGRLQVSHRKGLPHVIYCRLWRWPDLHSHHELRAMELCEFAFNMKKDEVCVNPYHYQRVETPVLPPVLVPRHTEIPAEFPPLDDYSHSIPENTNFPAGIEPQSNIPETPPPGYLSEDGETSDHQMNHSMDAGSPNLSPNPMSPAHNNLDLQPVTYCEPAFWCSISYYELNQRVGETFHASQPSMTVDGFTDPSNSERFCLGLLSNVNRNAAVELTRRHIGRGVRLYYIGGEVFAECLSDSAIFVQSPNCNQRYGWHPATVCKIPPGCNLKIFNNQEFAALLAQSVNQGFEAVYQLTRMCTIRMSFVKGWGAEYRRQTVTSTPCWIELHLNGPLQWLDKVLTQMGSPSIRCSSVS

Target: T1, Smad4 (human (endogenous in PANC-1)), …
Test: co-IP; PANC-1 cells treated with TGF-β (10 ng/mL, 1 h); which protein was precipitated is not told; no co-IP protocol in the methods
Conditions: remark: other sources report otherwise

| Binder | binding |
| --- | --- |
| B1 | binds |
| B2 | binds |
